According to patent publication US20210181109A1 (FUJIFILM Corporation, priority 2018, published 2021):
Read-outs that look alike come from different tables or passages of the source.

Test: Average score of NAC and NAL depletion and prediction of skin allergenicity, fluorescence method
Procedure: The average value (Average Score) of NAC and NAL depletion percents is calculated. In the resultant value, the second decimal place is rounded off.
Average value (Average Score) of NAC and NAL depletion percents=(NAC depletion percent+NAL depletion percent)/2
The depletion percent of at least one of NAC or NAL or the average score of the depletion percents of NAC and NAL is calculated, and whether or not the test substances are “allergenic substances” or “non-allergenic substances” is determined:
(1) in a case of performing evaluation based on the average value of the depletion percent of NAC and the depletion percent of NAL,
In the following Tables, S represents as being an allergenic substance and NS represents as being a non-allergenic substance.

[1] = Fluorescence method, average of NAC and NAL depletion

In the case of `CCCCBr` [1-Bromobutane], the Average score [1] is reported as 0.0.
For `CCCCO` [1-Butanol], the Average score [1] was 1.2.
In the case of `CC(=O)C1CCCCC1=O` (centres unmarked) [2-Acetylcyclohexanone], the Average score [1] is reported as 1.7.
Work on `C=C(C)C(=O)OCC(C)O` (centres unmarked) [2-Hydroxypropyl methacrylate] yielded an Average score [1] of 1.1.
`O=C(O)c1ccc(O)cc1` [4-Hydroxybenzoic acid] gave an Average score [1] of 1.5.
`COc1ccc(C(C)=O)cc1` [4′-Methoxyacetophenone] showed an Average score [1] of 0.6.
`Cc1ccc2oc(=O)ccc2c1` [6-Methylcoumarin] gave an Average score [1] of 0.7.
For `ClC(Cl)c1ccccc1` [Benzylidene dichloride], the Average score [1] was 1.7.
For `Clc1ccccc1` [Chlorobenzene], the Average score [1] was 0.7.
`O=c1ccc2ccccc2o1` [Coumarin] showed an Average score [1] of 0.8.
`CCOC(=O)c1ccccc1C(=O)OCC` [Diethyl phthalate] showed an Average score [1] of 0.1.
In the case of `OCC(O)CO` [Glycerol], the Average score [1] is reported as 0.1.
Work on `CCCCCC` [Hexane] yielded an Average score of 0.0.
`CC(C)O` [Isopropanol] showed an Average score [1] of 2.8.
In the case of `CCCCCCCCCCCCCC(=O)OC(C)C` [Isopropyl myristate], the Average score [1] is reported as 3.1.
`CC(O)C(=O)O` (centres unmarked) [Lactic acid] showed an Average score [1] of 0.7.
`COC(=O)c1ccccc1O` [Methyl salicylate] showed an Average score [1] of 0.1.
`COC(=O)c1ccc(O)cc1` [Methylparaben] showed an Average score [1] of 2.7.
With `CCCCCCCCC(=O)O` [Nonanoic acid] the Average score [1] was 0.0.
For `CCCCCCCC(=O)O` [Octanoic acid], the Average score [1] was 0.0.
`CC(O)CO` (centres unmarked) [Propylene glycol] gave an Average score [1] of 2.8.
With `CCCOC(=O)c1ccc(O)cc1` [Propylparaben] the Average score [1] was 2.5.
In the case of `O=C(O)c1ccccc1O` [Salicylic acid], the Average score [1] is reported as 2.2.
`Nc1ccc(S(N)(=O)=O)cc1` [Sulfanilamide] gave an Average score [1] of 2.1.
Work on `Nc1ccc(S(=O)(=O)O)cc1` [Sulfanilic acid] yielded an Average score [1] of 0.1.
For `COc1cc(C=O)ccc1O` [Vanillin], the Average score [1] was 1.0.
